# Data as given in PubChem BioAssay AID2718 (Broad Institute, 2010).
# Amino acid sequences for entries named in this document (tags omitted).
# UniProt O15379, whole entry, looked up: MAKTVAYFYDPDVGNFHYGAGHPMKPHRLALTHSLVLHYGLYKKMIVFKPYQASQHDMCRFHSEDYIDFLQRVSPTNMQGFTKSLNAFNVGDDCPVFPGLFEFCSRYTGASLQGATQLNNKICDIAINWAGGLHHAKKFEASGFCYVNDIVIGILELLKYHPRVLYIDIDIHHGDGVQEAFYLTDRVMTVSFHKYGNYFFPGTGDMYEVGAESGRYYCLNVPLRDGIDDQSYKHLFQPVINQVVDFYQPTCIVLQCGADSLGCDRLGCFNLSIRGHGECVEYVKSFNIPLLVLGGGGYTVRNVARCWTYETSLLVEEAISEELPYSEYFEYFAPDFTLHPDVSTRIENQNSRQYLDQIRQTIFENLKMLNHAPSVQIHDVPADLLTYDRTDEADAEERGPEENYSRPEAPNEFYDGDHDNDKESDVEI
# In all, about 320,000 compounds went through this assay and about 480 (0.15%) were called active. Inconclusive results, whose numbers are uncertain, are shown with a selection of clear calls. Cut-off read from the data, not from the text of the source: active = inhibition above about 26% (passing the limit was not always enough); inconclusive = no clear call, values can overlap the other calls.
# Molecular target: Histone deacetylase 3 (Homo sapiens) (UniProt O15379)
# Test: HDAC3 deacetylase inhibitors, primary screen, biochemical, fluorescence, cell-free homogeneous (AID 2718)
# Settings: recombinant HDAC3, fluorogenic peptide/trypsin coupled, at 8.3 µM, stronger effect = higher value
row,Compound,inhibition
1,Nc1nc(N)nc(-c2cc(C(F)(F)F)ccc2Cl)n1,active: 27.8%
2,CN1CCN(C2=C(Cl)C(=O)N(C3CCCCC3)C2=O)CC1,inconclusive: 14.5%
3,CCOc1cc(-c2ccccc2)nc(N)n1,inactive: -1.21%
4,COc1ccc(C(=O)n2cc(C(=O)c3cc(C)ccc3O)cn2)cc1OC,active: 52.8%
5,CC(C)Oc1ccc(C(=O)Nc2ccccc2N2CCCC2)cc1,inconclusive: 29.1%
6,Cc1occc1-c1nnc(SCC(=O)c2cc3ccccc3oc2=O)o1,inactive: -0.963%
7,CCOc1ccc(CCNS(=O)(=O)c2ccc(-c3ccc(=O)[nH]n3)o2)cc1OCC,inconclusive: 19.8%
8,COc1ccc(C(=O)N/N=C\c2coc3ccccc3c2=O)cc1,active: 88.7%
9,CC1(C)O[C@@H](CC(=O)O)[C@]23CO[C@H](C(=O)[C@]4(C)C2CC[C@@]2(C)[C@H](c5ccoc5)OC(=O)C5O[C@]524)[C@@H]13 (some centres not stated),inactive: -5.09%
10,COc1ccc(S(=O)CC(=O)Nc2ccccc2Cl)cc1 (configuration not stated),inconclusive: 22.9%
11,CC(C)COP(=O)(c1ccc(N(C)C)cc1)C(Nc1ccccc1)c1ccccc1 (configuration not stated),inconclusive: 22%
12,CCOc1nc(-c2ccc(OC)cc2)ccc1-c1noc(C)n1,inconclusive: 17.7%
13,N#Cc1c(N)nc2c(c1-c1cccnc1)CCCCC2,inconclusive: 12.8%
14,Cc1ccc(SCC2=NN(c3nc(C)cc(C)n3)C(=O)C2)cc1,inactive: -0.94%
15,O=C(COc1ccc(F)cc1)Nc1nc2c(s1)CCCC2,inconclusive: 18.8%
16,CC(=O)N1c2ccc(S(=O)(=O)NCCc3ccccc3)cc2CC1C (configuration not stated),inconclusive: 18.8%
17,CCOC(=O)c1sc2nc(N3CCOCC3)c3c(c2c1N)CCN(Cc1ccccc1)C3,inconclusive: 16.2%
18,COc1cccc(NC(=O)CN2C(=O)COc3ccc(S(=O)(=O)N4CCC(C)CC4)cc32)c1,inactive: -5.56%
19,COCCNc1nnc(SCC(=O)NNC(=O)c2ccc([N+](=O)[O-])cc2)s1,inactive: -3.09%
20,Cc1ccc2oc(=O)n(CCOc3ccccc3Cl)c2c1,inconclusive: 13.6%
21,O=C(c1cccs1)n1nc(-c2ccccc2)nc1NCc1ccco1,inconclusive: 35.9%
22,O=C(Nc1nc2c(Br)cccc2s1)C1CC1,active: 46.4%

# 4 compounds from above, sorted by number of heavy atoms, smallest number first.
row,Compound,inhibition
10,COc1ccc(S(=O)CC(=O)Nc2ccccc2Cl)cc1 (configuration not stated),inconclusive: 22.9%
12,CCOc1nc(-c2ccc(OC)cc2)ccc1-c1noc(C)n1,inconclusive: 17.7%
8,COc1ccc(C(=O)N/N=C\c2coc3ccccc3c2=O)cc1,active: 88.7%
19,COCCNc1nnc(SCC(=O)NNC(=O)c2ccc([N+](=O)[O-])cc2)s1,inactive: -3.09%

# Continuation:

row,Compound,inhibition
1,CCN(CC)S(=O)(=O)c1ccc2[nH]c(=O)cc(C(=O)Nc3ccc(C)c(S(=O)(=O)N(CC)CC)c3)c2c1,inconclusive: 25.2%
2,CC(=O)N/C(=C\c1ccc(Br)s1)C(=O)O,inconclusive: 23.9%
3,O=C(NCc1cccnc1)C1CCCN(Cc2cnn(-c3ccccc3)c2-n2cccc2)C1 (configuration not stated),inactive: 4.49%
4,CCC(NC(=O)Nc1nccs1)(C(F)(F)F)C(F)(F)F,inconclusive: 18%
5,c1ccc(CC(Nc2ccccn2)c2ccccc2)cc1 (configuration not stated),inconclusive: 21.7%
6,O=C(NCc1ccc2c(c1)OCO2)Nc1ccc([N+](=O)[O-])cc1,inconclusive: 17.2%
7,CCn1cc(/C=C(\NC(=O)c2cc(OC)c(OC)c(OC)c2)C(=O)NCCN2CCOCC2)c2ccccc21,inconclusive: 16.6%
8,Cc1nn(CCOc2ccccc2)c(=O)n1-c1ccccc1,inactive: 0.0114%
9,CCCCn1c(/N=C/c2c[nH]c3ccccc23)nc2ccccc21,active: 31%
10,COc1ccc(S(=O)(=O)n2nc(OC(=O)c3c(-c4ccccc4Cl)noc3C)cc2N)cc1,inactive: -0.764%
11,O=C(N/N=C/c1cc([N+](=O)[O-])cc([N+](=O)[O-])c1O)/C(=C\c1cccs1)NC(=O)c1ccccc1,inconclusive: 21.6%
12,O=C(NCc1n[nH]c(=S)n1Cc1ccccc1)c1ccc(Cl)cc1Cl,inactive: 4.32%
13,O=C(Nc1cccc(-c2csc(Nc3ccccc3)n2)c1)c1cc([N+](=O)[O-])cc(C(F)(F)F)c1,inactive: -2.02%
14,CCCCCOc1ccc2oc(=O)c3c(c2c1)CCCN3C(=O)CN1CCCC(C(=O)OCC)C1 (configuration not stated),inactive: 4.25%
15,N#Cc1ccc(CSc2nnc(-c3cccnc3)n2-c2ccccc2)cc1,inactive: -0.232%
16,CCOC(=O)c1sc(NC(=O)CCCn2nc([N+](=O)[O-])c(Cl)c2C)c(C(=O)OCC)c1C,inconclusive: 25.9%
17,CC(C)CC(=O)Nc1ncc([N+](=O)[O-])s1,inconclusive: 20.5%
18,O=C(CSc1ncnc2scc(-c3ccc(F)cc3)c12)c1ccc2c(c1)OCCO2,active: 81.2%
19,CCN(CC)c1nc(C)c2c(c1C#N)CC(C)(C)OC2,inactive: -6.51%
20,CN(C)C1=NC[C@H](Cc2ccccc2)N1CCCC1CCCC1,inactive: 2.17%
21,CC1CCN(S(=O)(=O)c2ccc(S(=O)(=O)NCC3COCCO3)cc2)CC1 (configuration not stated),inconclusive: 26%
22,NNC(=O)c1ccc(COc2cccc3cccnc23)cc1,inactive: 1.61%

row,Compound,inhibition
1,CC(C)N1CCc2c(sc(N)c2C#N)C1,inconclusive: 14.5%
2,CN(Cc1ccccc1)C(=O)COc1ccc(C(C)(C)C)cc1,inconclusive: 19%
3,COc1ccc(CC(=O)NNc2ncnc3c2cnn3C)cc1OC,inconclusive: 11.5%
4,COc1cccc(C(=O)NNC(=O)CCc2ccccc2)c1,inconclusive: 17.3%
5,COc1ccc(S(=O)(=O)Cc2ccc(C(=O)N3CCN(c4ccc(Cl)cc4)CC3)o2)cc1,inactive: -4.59%
6,O=C(CSc1nc2ccccc2o1)Nc1ccc(N2CCOCC2)cc1,inactive: 2.64%
7,COc1ccccc1CNC(=O)COC(=O)c1ccco1,inconclusive: 15.1%
8,O=C(Nc1ccccc1F)C(=O)Nc1cccc2ccccc12,inconclusive: 11.2%
9,Cc1nc(C)c(-c2ccc(SCc3ccccc3C)nn2)s1,inconclusive: 13.1%
10,CCN(CC)c1nc(-c2ccccc2)ncc1S(=O)(=O)c1ccc(C)cc1,inconclusive: 21.1%
11,COc1cccc(C2N(c3cccc(Cl)c3)C(=O)C3CCCN32)c1 (configuration not stated),inactive: -4.73%
12,O=C(Nc1ccc(C(=O)O)cc1)/C(=C\C=C\c1ccccc1)NC(=O)c1ccc(Br)cc1,inconclusive: 20.5%
13,Cc1nc(-c2ccc3c(c2)OCCCO3)cs1,active: 40.8%
14,CCn1c(Cc2ccc(OC)cc2)nnc1SCC(=O)NC1CCCCC1,inconclusive: 17.3%
15,CN(C)c1nc(-c2ccc([N+](=O)[O-])cc2)cs1,inactive: 7.38%
16,c1ccc(COC2CCCN(Cc3nc(Cc4ccccc4)no3)C2)cc1 (configuration not stated),inconclusive: 20.8%
17,CC(=O)Nc1ccc(S(=O)(=O)Nc2ccc(C)c([N+](=O)[O-])c2)cc1,inconclusive: 19.2%
18,CC(C)C[C@H](NC(=O)c1[nH]cnc1C(=O)Nc1ccccc1)C(=O)OC(C)(C)C,inconclusive: 14.9%
19,O=C(CC1(O)C(=O)Nc2ccccc21)c1ccc(-n2cnnn2)cc1 (configuration not stated),inconclusive: 14.8%
20,N#CC1=C(N)NC(SCC(=O)c2ccc(Br)cc2)=C(C#N)C12CCCCC2,inconclusive: 22.1%
21,C[C@H](CO)N1C[C@H](C)[C@@H](CN(C)CC2CCCCC2)Oc2c(NC(=O)CCC(F)(F)F)cccc2C1=O,inconclusive: 17.4%
22,CCn1nc(C)c([N+](=O)[O-])c1C(=O)NNC(=O)c1ccc(Cl)cc1,inconclusive: 36.1%

row,Compound,inhibition
1,COC(=O)[C@]1(CC(C)C)N[C@H](c2ccc(-c3ccc(F)cc3)cc2)[C@@H]2C(=O)N(C)C(=O)[C@@H]21,inconclusive: 21.9%
2,Cc1cc(Cl)cc(C)c1OCCCCCn1ccnc1,inconclusive: 29.2%
3,C/C(=N\NC(=O)c1ccc(NS(=O)(=O)c2cccs2)cc1)c1ccc(C(C)(C)C)cc1,inconclusive: 18.4%
4,O=C(c1ccccc1)c1cc([N+](=O)[O-])ccc1N1CCCC1,inactive: 1.54%
5,Cn1nc(C(=O)NNC(=O)COc2ccccc2)c2ccccc2c1=O,inconclusive: 15.5%
6,O=C(NCc1ccccc1)c1ccc(C(=O)N(C2CCCCC2)C2CCCCC2)cc1,inconclusive: 19.1%
7,COc1ccc(-c2ccc(SCc3ccccn3)nn2)cc1OC,inconclusive: 19%
8,CC1Sc2n(c3ccccc3[n+]2C)N=C1c1ccccc1 (configuration not stated),inactive: -0.0972%
9,CCOC(=O)c1[nH]cnc1C(=O)Nc1ccc(Cl)cc1,inconclusive: 22.6%
10,C/C(=N\NC(=S)NCc1ccccc1)c1ccc2ccccc2c1,inactive: 8.84%
11,CC(=O)c1ccc(S(=O)(=O)NCC(=O)Nc2nc3ccccc3[nH]2)cc1,inconclusive: 60.7%
12,CCCSc1ccc([C@@H]2[C@H]3C(=O)N(CC)C(=O)[C@H]3[C@]3(C(=O)OC)CCCCN23)cc1,inconclusive: 19.5%
13,CCOc1ccc(NC(=O)C2CC(=O)N(Cc3ccco3)C2)cc1 (configuration not stated),inactive: -3.34%
14,Cc1ccc(NC(=S)NNC(=O)c2nn(C)c(C)c2Cl)cc1,inactive: 4.95%
15,O=C(Oc1ccc(N2C(=O)C3C4CCC(C4)C3C2=O)cc1)c1ccco1 (configuration not stated),inconclusive: 24.3%
16,Cc1ccccc1-c1cc(C(=O)NCc2cccc(C(F)(F)F)c2)n(CC2CC(c3cccnc3)=NO2)n1 (configuration not stated),active: 25.4%
17,CC(C)(C)OC(=O)NCCc1nnc(SCC(N)=O)o1,inconclusive: 14.6%
18,CC(=O)c1ccc(NC(=O)C2CCN(S(=O)(=O)c3ccc4c(c3)N(C(C)=O)CCO4)CC2)cc1,inconclusive: 19.7%
19,Cc1scc(C(=O)N/N=C/c2ccc(OCC(C)C)cc2)c1C,inconclusive: 39.9%
20,O=C(NCCCc1ccccc1)c1ccc(Br)o1,inconclusive: 23.5%
21,O=C(CSc1nnc(CNC(=O)c2c(F)cccc2Cl)o1)NC1CCCC1,inconclusive: 18.1%
